Test results published in patent US20260138957A1, “UREA-LINKED 2-AMINOIMIDAZOLE DIMER POTENTIATORS” (UNIVERSITY OF NOTRE DAME DU LAC, priority 2022, published 2026).
Some of these results come from one statement about several compounds together.

These compounds were tested on AB5075 (assay: Potentiation of azithromycin, erythromycin and rifampin against AB5075). Conditions: AB5075, adjuvant at 10 μM.
Assay type: cell-based, Acinetobacter baumannii

Row | Structure (SMILES) | fold decrease of AZM MIC | fold decrease of ERY MIC
1 | Nc1nc(-c2cc(F)cc(NC(=O)Nc3cc(F)cc(-c4c[nH]c(N)n4)c3)c2)c[nH]1 [Compound 9g] | at least 16 fold | at least 16 fold
2 | Nc1nc(-c2ccc(NC(=O)Nc3ccc(-c4c[nH]c(N)n4)c(F)c3)cc2F)c[nH]1 [Compound 9a] | at least 16 fold | at least 16 fold
3 | Nc1nc(-c2ccc(NC(=O)Nc3cccc(-c4c[nH]c(N)n4)c3F)cc2F)c[nH]1 [Compound 9k, 1-(3-(2-amino-1H-imidazol-4-yl)-2-fluorophenyl)-3-(4-(2-amino-1H-imidazol-4-yl)-3-fluorophenyl)urea] | at least 16 fold | at least 16 fold
